Our source for the binding values is publication doi:10.1101/2024.03.18.585606.

By UniProt entry, the sequences of proteins in these tests, tags left out.
UniProt Q15648: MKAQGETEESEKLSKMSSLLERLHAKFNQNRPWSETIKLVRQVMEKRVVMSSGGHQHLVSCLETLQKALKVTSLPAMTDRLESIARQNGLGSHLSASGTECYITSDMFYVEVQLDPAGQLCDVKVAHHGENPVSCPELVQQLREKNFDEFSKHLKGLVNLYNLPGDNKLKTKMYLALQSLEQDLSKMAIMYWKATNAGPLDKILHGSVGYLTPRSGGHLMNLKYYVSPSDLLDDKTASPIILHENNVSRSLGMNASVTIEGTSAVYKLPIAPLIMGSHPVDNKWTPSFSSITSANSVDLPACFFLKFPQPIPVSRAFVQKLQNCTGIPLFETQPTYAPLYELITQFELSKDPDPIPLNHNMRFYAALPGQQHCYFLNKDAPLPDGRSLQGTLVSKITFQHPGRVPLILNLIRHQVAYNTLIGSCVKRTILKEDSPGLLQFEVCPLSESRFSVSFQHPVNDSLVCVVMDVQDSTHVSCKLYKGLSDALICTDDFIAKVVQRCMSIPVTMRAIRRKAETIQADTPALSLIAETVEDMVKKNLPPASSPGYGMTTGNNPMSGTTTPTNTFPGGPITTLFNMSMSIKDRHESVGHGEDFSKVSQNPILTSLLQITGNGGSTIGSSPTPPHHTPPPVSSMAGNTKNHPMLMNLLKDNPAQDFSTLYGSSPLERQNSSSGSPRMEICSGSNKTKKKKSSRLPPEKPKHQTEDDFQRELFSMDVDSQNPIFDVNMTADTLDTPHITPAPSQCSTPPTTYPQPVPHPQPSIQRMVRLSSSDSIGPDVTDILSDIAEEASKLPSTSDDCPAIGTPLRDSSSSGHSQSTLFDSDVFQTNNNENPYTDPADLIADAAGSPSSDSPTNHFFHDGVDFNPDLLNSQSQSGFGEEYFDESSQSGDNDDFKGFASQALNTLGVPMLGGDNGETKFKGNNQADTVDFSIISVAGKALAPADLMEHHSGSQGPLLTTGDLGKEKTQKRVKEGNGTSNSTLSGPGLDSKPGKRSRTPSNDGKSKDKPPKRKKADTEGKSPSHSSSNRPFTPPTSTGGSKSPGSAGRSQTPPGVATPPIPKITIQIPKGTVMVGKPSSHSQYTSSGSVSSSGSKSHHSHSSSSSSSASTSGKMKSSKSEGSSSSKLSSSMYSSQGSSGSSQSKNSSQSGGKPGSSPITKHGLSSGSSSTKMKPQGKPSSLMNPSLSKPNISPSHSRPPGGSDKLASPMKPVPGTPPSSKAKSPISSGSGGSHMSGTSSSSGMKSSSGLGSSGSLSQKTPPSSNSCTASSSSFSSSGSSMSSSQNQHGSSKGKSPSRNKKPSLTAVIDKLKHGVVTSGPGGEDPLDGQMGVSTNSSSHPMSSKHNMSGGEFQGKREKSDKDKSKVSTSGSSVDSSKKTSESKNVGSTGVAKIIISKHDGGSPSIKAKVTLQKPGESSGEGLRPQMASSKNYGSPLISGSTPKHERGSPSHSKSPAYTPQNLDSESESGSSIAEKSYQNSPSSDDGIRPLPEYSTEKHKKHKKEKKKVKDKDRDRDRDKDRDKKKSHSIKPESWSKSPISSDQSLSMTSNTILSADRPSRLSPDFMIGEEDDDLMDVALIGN
UniProt Q09472: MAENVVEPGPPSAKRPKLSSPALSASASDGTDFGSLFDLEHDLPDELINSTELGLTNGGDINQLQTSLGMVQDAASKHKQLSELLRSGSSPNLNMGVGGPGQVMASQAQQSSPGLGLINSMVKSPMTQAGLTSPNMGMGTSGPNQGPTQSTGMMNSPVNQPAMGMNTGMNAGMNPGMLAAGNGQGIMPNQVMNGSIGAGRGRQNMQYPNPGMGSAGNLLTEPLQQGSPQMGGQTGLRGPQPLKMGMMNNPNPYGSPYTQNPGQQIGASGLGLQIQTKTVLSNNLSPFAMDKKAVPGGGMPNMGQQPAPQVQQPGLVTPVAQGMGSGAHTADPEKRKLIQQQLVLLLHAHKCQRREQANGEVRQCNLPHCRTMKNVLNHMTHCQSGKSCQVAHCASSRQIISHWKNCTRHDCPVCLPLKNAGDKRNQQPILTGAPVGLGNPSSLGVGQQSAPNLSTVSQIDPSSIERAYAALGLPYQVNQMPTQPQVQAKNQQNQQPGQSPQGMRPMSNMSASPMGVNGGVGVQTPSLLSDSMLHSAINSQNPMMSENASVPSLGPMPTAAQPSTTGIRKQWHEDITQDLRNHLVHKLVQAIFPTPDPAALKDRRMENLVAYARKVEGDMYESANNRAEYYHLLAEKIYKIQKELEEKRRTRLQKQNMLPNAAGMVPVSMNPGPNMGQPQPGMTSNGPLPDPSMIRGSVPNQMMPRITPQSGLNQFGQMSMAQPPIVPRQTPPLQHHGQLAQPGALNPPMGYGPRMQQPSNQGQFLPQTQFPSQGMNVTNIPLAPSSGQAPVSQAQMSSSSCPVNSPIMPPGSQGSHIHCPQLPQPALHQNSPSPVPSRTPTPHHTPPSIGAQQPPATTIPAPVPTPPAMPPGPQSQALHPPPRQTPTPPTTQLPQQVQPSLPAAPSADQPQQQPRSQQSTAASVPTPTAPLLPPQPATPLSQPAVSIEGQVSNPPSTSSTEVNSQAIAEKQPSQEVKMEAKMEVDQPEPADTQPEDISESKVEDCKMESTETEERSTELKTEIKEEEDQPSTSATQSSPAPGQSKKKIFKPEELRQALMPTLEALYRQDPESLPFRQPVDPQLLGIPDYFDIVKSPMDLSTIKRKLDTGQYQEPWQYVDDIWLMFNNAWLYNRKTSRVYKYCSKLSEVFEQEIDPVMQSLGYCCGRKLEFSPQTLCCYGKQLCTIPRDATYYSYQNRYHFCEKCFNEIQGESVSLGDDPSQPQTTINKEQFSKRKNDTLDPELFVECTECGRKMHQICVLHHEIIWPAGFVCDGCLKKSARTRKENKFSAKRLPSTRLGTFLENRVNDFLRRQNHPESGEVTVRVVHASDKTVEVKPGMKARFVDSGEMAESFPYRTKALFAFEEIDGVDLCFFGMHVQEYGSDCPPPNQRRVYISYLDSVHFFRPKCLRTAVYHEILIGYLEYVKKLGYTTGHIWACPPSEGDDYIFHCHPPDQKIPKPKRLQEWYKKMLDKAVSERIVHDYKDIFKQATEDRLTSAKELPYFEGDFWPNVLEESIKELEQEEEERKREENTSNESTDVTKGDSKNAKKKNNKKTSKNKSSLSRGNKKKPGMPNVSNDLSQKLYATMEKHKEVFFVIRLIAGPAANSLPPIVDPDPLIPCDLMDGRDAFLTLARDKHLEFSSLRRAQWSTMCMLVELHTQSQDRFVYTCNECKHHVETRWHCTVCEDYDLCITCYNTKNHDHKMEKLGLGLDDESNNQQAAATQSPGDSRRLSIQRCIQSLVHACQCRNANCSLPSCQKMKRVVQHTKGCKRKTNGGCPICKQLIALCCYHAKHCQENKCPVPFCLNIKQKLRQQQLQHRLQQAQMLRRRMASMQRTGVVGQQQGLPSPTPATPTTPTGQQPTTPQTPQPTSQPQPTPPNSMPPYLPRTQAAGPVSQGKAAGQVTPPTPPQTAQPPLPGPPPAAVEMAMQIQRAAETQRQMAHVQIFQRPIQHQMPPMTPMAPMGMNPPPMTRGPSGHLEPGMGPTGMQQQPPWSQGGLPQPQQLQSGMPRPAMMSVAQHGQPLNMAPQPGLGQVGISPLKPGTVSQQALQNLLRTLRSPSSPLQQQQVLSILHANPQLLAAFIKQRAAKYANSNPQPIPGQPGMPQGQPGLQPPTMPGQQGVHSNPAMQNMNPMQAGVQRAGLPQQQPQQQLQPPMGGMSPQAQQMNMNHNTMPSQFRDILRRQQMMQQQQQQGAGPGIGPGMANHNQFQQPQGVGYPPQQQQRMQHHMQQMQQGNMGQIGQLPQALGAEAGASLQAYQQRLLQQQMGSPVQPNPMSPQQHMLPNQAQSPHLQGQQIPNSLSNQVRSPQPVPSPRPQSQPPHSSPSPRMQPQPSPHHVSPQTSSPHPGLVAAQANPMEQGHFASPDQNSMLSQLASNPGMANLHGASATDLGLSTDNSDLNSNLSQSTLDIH

The target in this assay is T1, FLAG-tagged human MED10 (human) (UniProt Q9BTT4).
T1 sequence: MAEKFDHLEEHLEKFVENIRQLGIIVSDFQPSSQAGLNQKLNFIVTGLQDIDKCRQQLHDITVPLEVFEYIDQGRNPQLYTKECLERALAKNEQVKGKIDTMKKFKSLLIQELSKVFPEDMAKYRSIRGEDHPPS
Kind of assay: co-IP.

These are yes or no findings as the source states them, for the method shown. In cells and extracts the contact can be indirect. Some entries that bind do so weakly or less than the wild type. Tags and fused reporters may be left off the sequences shown.

Regarding MED1 (from UniProt Q15648 1-1581), the binding result is “binds”.
Next, p300 (from UniProt Q09472 1-2414): “no binding”.

B1: MED17 (protein, UniProt Q9NVC6 1-651)
chain: MSGVRAVRISIESACEKQVHEVGLDGTETYLPPLSMSQNLARLAQRIDFSQGSGSEEEEAAGTEGDAQEWPGAGSSADQDDEEGVVKFQPSLWPWDSVRNNLRSALTEMCVLYDVLSIVRDKKFMTLDPVSQDALPPKQNPQTLQLISKKKSLAGAAQILLKGAERLTKSVTENQENKLQRDFNSELLRLRQHWKLRKVGDKILGDLSYRSAGSLFPHHGTFEVIKNTDLDLDKKIPEDYCPLDVQIPSDLEGSAYIKVSIQKQAPDIGDLGTVNLFKRPLPKSKPGSPHWQTKLEAAQNVLLCKEIFAQLSREAVQIKSQVPHIVVKNQIISQPFPSLQLSISLCHSSNDKKSQKFATEKQCPEDHLYVLEHNLHLLIREFHKQTLSSIMMPHPASAPFGHKRMRLSGPQAFDKNEINSLQSSEGLLEKIIKQAKHIFLRSRAAATIDSLASRIEDPQIQAHWSNINDVYESSVKVLITSQGYEQICKSIQLQLNIGVEQIRVVHRDGRVITLSYQEQELQDFLLSQMSQHQVHAVQQLAKVMGWQVLSFSNHVGLGPIESIGNASAITVASPSGDYAISVRNGPESGSKIMVQFPRNQCKDLPKSDVLQDNKWSHLRGPFKEVQWNKMEGRNFVYKMELLMSALSPCLL
On to B1, for which the binding entry was “binds”.
